Measurements reported in PubChem BioAssay AID652259 (Drosophila RNAi Screening Center, 2013).
Screen: 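Knock-downs that push a Wingless-driven reporter up or down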 (primary screen). System: Drosophila clone 8 imaginal disc epithelial cells. Reagents: long dsRNA against Drosophila genes. Treatment: pathway stimulated by co-transfected Wingless expression plasmid. Measurement: 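Dual luciferase reads per well after Wingless plasmid stimulation: reporter firefly light and Renilla control light; activity is firefly divided by Renilla, a ratio not deposited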. Reading the numbers: firefly reporter light: higher = more Wg reporter light, before normalisation; Renilla control light: higher = more transfected or surviving cells. Rule for the call: 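a knock-down is a candidate when at least two out of four statistical tests show it departing from its plate mean; one test alone signals a weak candidate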. Meaning of the calls: active = candidate regulator (raises or lowers reporter); inactive = not a candidate.
The deposit covers about 22,000 reagents; this is a random part of those that have a named target and a result. In the full data, 233 (1.1%) got an active call. 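Light values are raw, unnormalised plate reads; the ratio scores behind the reporter calls were not deposited.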 Reagents against one gene are numbered here. Not given: the amount of reagent, the time to read-out, the dose of the treatment.

Against Etl1 the deposit lists firefly reporter light, replicate 1 = 7556; Renilla control light, replicate 1 = 1958; inactive. Depletion of Dgp-1 gave: firefly reporter light, replicate 1 = 6294; Renilla control light, replicate 1 = 2246; inactive. Depletion of Arl6IP1 (ADP-ribosylation factor-like 6 interacting protein 1) resulted in: firefly reporter light, replicate 1 = 14064; Renilla control light, replicate 1 = 2932; inactive. Silencing of CG12547 gave: firefly reporter light, replicate 1 = 4698; Renilla control light, replicate 1 = 2296; inactive. CG31559 #1 showed firefly reporter light, replicate 1 = 15173; Renilla control light, replicate 1 = 3513; inactive. Knock-down of CG31559 #2 resulted in: firefly reporter light, replicate 1 = 12548; Renilla control light, replicate 1 = 3175; inactive.

Silencing of GNBP1 (Gram-negative bacteria binding protein 1) #1 resulted in: firefly reporter light, replicate 1 = 10337; Renilla control light, replicate 1 = 4512; inactive. Knock-down of GNBP1 (Gram-negative bacteria binding protein 1) #2 came out at: firefly reporter light, replicate 1 = 6.90e5; firefly reporter light, replicate 2 = 6.57e5; Renilla control light, replicate 1 = 2.38e5; Renilla control light, replicate 2 = 2.68e5; inactive. Depletion of CG16903 gave: firefly reporter light, replicate 1 = 21606; Renilla control light, replicate 1 = 10437; inactive. Against fzr2 (fizzy-related 2), the values are firefly reporter light, replicate 1 = 13932; Renilla control light, replicate 1 = 4071; inactive. CG15673 showed firefly reporter light, replicate 1 = 3417; firefly reporter light, replicate 2 = 4953; Renilla control light, replicate 1 = 833; Renilla control light, replicate 2 = 1924; inactive.

An excerpt from the list above:
Dgp-1: firefly reporter light, replicate 1 = 6294; Renilla control light, replicate 1 = 2246; activity call = inactive
Arl6IP1 (ADP-ribosylation factor-like 6 interacting protein 1): firefly reporter light, replicate 1 = 14064; Renilla control light, replicate 1 = 2932; activity call = inactive

Further entries follow.
Eps-15 (Epidermal growth factor receptor pathway substrate clone 15) gave firefly reporter light, replicate 1 = 15275; Renilla control light, replicate 1 = 3875; inactive. With knock-down of ssx, the record shows firefly reporter light, replicate 1 = 2337; firefly reporter light, replicate 2 = 7105; Renilla control light, replicate 1 = 731; Renilla control light, replicate 2 = 837; inactive. Silencing of Cluap1 (Clusterin associated protein 1) resulted in: firefly reporter light, replicate 1 = 17366; firefly reporter light, replicate 2 = 6.57e5; Renilla control light, replicate 1 = 11816; Renilla control light, replicate 2 = 2.67e5; inactive. With knock-down of CG33229, the screen gave firefly reporter light, replicate 1 = 3906; Renilla control light, replicate 1 = 1840; inactive. For noi (noisette) the deposit lists firefly reporter light, replicate 1 = 6264; Renilla control light, replicate 1 = 1968; inactive. With knock-down of CG13674, the record shows firefly reporter light, replicate 1 = 2539; firefly reporter light, replicate 2 = 13475; Renilla control light, replicate 1 = 2368; Renilla control light, replicate 2 = 6064; inactive.
